According to the supplement of paper PMC6411743:
± gives the standard deviation of the averaged measurements. Only a part is listed here, and it is no random draw. Small differences around the control level are noise.

By UniProt entry, the sequences of proteins in these tests, tags left out. Where a name states a change or a piece, a line headed by the entry shows the natural chain unless it says otherwise.
UniProt O75569: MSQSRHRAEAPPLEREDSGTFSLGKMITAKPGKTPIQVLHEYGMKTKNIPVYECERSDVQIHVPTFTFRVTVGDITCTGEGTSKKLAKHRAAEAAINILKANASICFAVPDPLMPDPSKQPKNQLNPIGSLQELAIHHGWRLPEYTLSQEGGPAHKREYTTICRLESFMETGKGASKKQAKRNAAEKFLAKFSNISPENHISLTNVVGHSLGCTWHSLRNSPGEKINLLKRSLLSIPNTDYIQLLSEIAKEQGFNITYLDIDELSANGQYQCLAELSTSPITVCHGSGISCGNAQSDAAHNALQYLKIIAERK
UniProt O60307: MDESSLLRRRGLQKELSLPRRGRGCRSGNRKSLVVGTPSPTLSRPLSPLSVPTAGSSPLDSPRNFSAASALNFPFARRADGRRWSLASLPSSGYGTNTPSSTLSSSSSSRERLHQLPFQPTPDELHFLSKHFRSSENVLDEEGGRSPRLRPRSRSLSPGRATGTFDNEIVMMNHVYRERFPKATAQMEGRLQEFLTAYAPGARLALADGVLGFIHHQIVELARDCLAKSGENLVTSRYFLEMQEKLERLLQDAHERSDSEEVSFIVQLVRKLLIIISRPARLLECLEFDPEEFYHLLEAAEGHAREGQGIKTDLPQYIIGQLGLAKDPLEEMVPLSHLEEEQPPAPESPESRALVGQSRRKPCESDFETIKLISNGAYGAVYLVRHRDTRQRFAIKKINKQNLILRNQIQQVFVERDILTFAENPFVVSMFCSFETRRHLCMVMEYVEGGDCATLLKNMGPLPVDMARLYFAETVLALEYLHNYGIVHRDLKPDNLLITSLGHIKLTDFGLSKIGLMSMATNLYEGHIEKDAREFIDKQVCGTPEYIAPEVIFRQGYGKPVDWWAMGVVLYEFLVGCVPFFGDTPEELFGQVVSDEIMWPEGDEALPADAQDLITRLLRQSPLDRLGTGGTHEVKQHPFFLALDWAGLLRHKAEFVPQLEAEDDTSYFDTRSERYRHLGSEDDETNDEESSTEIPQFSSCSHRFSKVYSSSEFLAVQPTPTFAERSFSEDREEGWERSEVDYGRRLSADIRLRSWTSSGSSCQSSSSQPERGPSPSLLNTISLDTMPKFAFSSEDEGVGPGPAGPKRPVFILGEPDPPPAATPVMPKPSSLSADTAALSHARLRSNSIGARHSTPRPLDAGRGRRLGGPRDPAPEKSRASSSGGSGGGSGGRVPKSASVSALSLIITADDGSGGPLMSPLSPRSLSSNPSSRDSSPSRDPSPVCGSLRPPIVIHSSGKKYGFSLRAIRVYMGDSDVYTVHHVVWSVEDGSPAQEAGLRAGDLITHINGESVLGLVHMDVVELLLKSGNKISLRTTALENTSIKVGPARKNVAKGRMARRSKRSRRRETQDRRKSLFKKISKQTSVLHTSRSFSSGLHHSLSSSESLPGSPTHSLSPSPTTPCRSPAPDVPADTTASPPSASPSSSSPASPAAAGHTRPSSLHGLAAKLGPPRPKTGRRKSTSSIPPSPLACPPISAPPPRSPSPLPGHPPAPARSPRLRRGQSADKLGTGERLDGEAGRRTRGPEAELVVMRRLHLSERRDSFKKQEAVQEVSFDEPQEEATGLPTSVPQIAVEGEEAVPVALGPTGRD
UniProt O60930: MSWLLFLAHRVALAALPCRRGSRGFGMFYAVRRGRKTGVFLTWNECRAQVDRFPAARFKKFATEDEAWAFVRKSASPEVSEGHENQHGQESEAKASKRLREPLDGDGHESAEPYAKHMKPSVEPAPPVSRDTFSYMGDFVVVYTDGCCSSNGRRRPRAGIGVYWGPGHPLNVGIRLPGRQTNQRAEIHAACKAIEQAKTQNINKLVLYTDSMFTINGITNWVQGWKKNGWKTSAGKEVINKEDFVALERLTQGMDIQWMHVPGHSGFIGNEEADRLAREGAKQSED
UniProt O60508: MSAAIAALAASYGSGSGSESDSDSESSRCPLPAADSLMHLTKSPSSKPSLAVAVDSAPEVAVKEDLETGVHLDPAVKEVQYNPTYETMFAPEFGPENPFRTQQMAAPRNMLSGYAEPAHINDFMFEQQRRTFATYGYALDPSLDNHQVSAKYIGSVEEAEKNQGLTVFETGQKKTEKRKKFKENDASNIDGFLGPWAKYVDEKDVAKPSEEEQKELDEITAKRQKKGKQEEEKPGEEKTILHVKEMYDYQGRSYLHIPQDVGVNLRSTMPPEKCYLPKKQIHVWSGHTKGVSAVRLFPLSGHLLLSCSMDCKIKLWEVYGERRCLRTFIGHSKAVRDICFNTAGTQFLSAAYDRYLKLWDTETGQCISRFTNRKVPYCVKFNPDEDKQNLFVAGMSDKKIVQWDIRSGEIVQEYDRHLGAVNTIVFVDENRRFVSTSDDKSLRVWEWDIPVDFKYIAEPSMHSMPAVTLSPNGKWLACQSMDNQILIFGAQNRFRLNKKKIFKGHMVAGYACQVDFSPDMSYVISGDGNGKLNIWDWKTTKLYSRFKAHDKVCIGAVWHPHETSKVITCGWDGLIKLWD
UniProt O75152: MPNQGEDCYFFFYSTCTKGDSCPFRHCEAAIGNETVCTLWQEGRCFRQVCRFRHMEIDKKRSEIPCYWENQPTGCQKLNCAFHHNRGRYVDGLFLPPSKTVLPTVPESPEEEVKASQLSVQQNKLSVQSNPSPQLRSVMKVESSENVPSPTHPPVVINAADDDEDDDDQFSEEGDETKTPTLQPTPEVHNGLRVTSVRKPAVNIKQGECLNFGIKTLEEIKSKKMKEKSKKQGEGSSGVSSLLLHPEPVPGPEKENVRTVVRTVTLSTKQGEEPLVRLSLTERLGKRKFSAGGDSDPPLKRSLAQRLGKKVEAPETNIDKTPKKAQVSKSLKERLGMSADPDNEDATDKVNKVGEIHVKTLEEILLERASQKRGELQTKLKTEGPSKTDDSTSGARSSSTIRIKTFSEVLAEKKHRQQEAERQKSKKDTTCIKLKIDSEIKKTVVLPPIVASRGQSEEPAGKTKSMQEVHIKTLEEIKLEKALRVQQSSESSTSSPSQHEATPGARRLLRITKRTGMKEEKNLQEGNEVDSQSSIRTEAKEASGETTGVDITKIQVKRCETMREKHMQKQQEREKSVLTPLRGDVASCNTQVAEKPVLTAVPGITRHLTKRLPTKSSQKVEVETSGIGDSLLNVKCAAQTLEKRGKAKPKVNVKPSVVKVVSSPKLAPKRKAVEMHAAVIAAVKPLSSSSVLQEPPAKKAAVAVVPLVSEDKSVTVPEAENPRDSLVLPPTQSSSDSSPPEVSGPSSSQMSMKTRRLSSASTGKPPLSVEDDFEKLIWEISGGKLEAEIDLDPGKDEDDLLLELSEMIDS
UniProt O60869: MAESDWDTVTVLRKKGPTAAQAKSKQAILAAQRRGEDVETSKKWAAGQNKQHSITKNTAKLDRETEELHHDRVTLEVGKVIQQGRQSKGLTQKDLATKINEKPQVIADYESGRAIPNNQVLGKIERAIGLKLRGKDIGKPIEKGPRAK
UniProt O75494: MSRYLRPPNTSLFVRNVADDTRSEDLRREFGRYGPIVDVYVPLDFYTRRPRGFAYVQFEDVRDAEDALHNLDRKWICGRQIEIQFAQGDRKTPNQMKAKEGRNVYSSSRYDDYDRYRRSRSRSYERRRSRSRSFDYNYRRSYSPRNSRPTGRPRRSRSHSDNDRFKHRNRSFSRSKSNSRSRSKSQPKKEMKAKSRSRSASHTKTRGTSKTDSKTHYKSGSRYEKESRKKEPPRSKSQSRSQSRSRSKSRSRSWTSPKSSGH
UniProt O75396: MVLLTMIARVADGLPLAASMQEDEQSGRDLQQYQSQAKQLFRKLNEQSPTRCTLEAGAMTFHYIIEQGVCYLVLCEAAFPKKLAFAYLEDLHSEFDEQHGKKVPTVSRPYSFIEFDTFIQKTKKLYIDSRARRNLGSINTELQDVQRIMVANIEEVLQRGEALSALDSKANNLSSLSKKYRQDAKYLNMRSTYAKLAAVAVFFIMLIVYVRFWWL
UniProt O75381, whole entry: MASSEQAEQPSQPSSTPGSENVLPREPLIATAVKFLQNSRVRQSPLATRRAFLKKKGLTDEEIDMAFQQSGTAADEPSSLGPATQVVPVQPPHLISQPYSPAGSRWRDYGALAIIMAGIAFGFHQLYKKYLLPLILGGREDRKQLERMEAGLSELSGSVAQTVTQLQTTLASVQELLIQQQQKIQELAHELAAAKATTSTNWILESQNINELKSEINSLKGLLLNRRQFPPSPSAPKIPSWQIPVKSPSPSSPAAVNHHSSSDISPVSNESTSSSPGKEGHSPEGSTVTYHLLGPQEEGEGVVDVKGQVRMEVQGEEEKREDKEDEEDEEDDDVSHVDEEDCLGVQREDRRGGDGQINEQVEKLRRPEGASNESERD
UniProt O95347, whole entry: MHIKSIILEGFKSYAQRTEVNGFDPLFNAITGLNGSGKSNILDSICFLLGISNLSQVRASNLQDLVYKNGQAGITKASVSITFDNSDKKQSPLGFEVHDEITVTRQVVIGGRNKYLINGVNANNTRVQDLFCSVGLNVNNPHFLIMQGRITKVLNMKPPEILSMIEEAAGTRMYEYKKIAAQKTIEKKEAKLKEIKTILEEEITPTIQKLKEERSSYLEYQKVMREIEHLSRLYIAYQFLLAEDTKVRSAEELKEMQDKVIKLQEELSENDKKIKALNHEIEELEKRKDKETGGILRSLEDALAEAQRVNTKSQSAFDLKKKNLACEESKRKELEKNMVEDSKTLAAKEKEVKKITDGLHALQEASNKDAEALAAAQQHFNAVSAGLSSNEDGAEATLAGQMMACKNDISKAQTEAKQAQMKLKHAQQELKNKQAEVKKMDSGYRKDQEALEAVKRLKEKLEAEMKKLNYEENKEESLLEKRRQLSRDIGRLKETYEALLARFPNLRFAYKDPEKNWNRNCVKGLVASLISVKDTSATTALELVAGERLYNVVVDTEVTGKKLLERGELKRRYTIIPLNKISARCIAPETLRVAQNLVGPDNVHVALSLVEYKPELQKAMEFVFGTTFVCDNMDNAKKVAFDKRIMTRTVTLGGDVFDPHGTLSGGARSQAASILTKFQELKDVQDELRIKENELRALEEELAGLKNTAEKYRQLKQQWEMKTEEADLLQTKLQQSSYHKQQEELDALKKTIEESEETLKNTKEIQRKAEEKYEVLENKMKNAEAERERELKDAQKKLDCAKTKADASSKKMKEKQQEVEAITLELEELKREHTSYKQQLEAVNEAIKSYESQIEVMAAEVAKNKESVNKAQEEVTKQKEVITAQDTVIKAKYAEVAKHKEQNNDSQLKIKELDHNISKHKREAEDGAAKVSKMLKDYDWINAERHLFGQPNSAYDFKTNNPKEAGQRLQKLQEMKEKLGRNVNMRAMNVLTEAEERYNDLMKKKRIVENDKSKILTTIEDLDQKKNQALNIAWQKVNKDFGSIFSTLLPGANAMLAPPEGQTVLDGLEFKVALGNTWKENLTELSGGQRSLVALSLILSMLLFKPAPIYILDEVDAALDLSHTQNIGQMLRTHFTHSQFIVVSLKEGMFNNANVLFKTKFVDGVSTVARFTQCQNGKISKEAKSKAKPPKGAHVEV
UniProt O95456: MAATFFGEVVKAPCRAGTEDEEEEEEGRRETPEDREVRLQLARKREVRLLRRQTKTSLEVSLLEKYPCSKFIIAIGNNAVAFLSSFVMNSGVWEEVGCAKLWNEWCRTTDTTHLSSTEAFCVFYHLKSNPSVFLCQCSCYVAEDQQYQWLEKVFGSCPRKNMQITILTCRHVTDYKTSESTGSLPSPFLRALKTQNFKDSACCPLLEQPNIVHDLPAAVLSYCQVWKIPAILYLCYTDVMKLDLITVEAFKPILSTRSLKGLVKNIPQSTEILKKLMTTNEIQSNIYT
UniProt O60832: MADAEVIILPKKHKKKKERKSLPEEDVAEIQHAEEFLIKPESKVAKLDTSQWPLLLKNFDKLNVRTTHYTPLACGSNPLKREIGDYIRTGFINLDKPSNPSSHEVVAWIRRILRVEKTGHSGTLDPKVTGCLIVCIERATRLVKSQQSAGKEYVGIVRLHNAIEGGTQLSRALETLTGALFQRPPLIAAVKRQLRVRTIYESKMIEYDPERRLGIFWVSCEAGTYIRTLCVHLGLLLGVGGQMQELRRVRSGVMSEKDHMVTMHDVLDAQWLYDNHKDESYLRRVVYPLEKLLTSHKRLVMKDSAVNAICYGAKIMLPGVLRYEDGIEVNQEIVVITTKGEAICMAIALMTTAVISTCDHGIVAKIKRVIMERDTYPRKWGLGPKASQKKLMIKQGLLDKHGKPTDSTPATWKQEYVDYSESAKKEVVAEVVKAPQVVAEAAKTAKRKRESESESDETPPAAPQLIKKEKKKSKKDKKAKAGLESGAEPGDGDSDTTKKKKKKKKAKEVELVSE
UniProt O75368: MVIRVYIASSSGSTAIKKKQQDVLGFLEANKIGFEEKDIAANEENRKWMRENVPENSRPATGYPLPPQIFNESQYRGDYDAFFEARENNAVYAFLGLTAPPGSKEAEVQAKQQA
UniProt O75607: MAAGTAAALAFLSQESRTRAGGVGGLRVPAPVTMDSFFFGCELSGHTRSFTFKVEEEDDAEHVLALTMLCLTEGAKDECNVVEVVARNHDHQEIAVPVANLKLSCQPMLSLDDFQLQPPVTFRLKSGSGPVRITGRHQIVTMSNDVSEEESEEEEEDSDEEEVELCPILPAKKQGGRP

These targets were tested with Nc1ncnc2c1ncn2[C@@H]1O[C@H](COP(=O)(O)OP(=O)(O)NP(=O)(O)O)[C@@H](O)[C@H]1O [adenylyl imidodiphosphate] (assay: NP40-soluble protein abundance relative to vehicle (solubility fold change) (ratio); higher = more soluble protein in presence of AMP-PNP). Conditions: concentration: 0.1mM.
Procedure, shortened: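 Across three independent experiments, values are fold changes against the detergent-processed vehicle for each replicate, based on vsn-normalised intensities. The samples were Jurkat crude lysate treated with eight concentrations (0.1 to 10 mM) for 10 min at room temperature and then 3 min at 37 °C. Lysate was solubilised with 0.8% NP40 and benzonase, ultracentrifuged, and the supernatant analysed by TMT-labelled LC-MS/MS.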

Target	NP40-soluble protein abundance
VAPB (UniProt O95292)	0.985 ± 0.03
SEC24A (UniProt O95486)	1 ± 0.034
UniProt O75569 and related entries	1.02 ± 0.048
UniProt O43929 and related entries	0.973 ± 0.051
MAST3 (UniProt O60307)	1.0102 ± 0.00014
RNASEH1 (UniProt O60930)	1.04 ± 0.05
UniProt O94903	0.984 ± 0.017
ATRN (UniProt O75882)	0.998 ± 0.017
UniProt O60508 and related entries	0.993 ± 0.027
UniProt O95696 and related entries	1.02 ± 0.014
DHX16 (UniProt O60231)	1.013 ± 0.0071
PPP1R11 (UniProt O60927)	1 ± 0.025
ZC3H11A (UniProt O75152)	0.895 ± 0.046
SPAG7 (UniProt O75391)	0.938 ± 0.033
UniProt O60869 and related entries	0.978 ± 0.038
AHSA1 (UniProt O95433)	1 ± 0.049
TRMU (UniProt O75648)	1.03 ± 0.051
UniProt O75494 and related entries	1.03 ± 0.021
UniProt O95167 and related entries	1.01 ± 0.013

Target	NP40-soluble protein abundance
UniProt O60861 and related entries	1.02 ± 0.019
UniProt O75396	0.993 ± 0.028
RAD21 (UniProt O60216)	0.966 ± 0.032
UGDH (UniProt O60701)	1.02 ± 0.039
UniProt O75381 and related entries	0.996 ± 0.036
UniProt O75312	0.982 ± 0.01
UniProt O75182 and related entries	0.961 ± 0.031
SMC2 (UniProt O95347)	0.986 ± 0.015
UniProt O60333-3|O60333 and related entries	0.996 ± 0.033
PSMG1 (UniProt O95456)	1.03 ± 0.011
DKC1 (UniProt O60832)	1.01 ± 0.033
UniProt O95684-2	0.9671 ± 0.0046
PDCD6 (UniProt O75340)	1.07 ± 0.049
TAF5L (UniProt O75529)	1.01 ± 0.034
MCM3AP (UniProt O60318)	0.991 ± 0.018
VPS4B (UniProt O75351)	0.992 ± 0.0079
SH3BGRL (UniProt O75368)	0.925 ± 0.011
NPM3 (UniProt O75607)	0.994 ± 0.019
LETM1 (UniProt O95202)	0.972 ± 0.017

Same assay, conditions: concentration: 0.5mM

Target	NP40-soluble protein abundance
VAPB (UniProt O95292)	1.04 ± 0.066
SEC24A (UniProt O95486)	0.992 ± 0.044
UniProt O75569 and related entries	0.996 ± 0.023
UniProt O43929 and related entries	0.984 ± 0.067
MAST3 (UniProt O60307)	1.004 ± 0.0011
RNASEH1 (UniProt O60930)	1.03 ± 0.026
UniProt O94903	1.01 ± 0.057
ATRN (UniProt O75882)	0.993 ± 0.032
UniProt O60508 and related entries	0.989 ± 0.058
UniProt O95696 and related entries	1.014 ± 0.0096
DHX16 (UniProt O60231)	1.011 ± 0.0049
PPP1R11 (UniProt O60927)	1.02 ± 0.019
ZC3H11A (UniProt O75152)	0.874 ± 0.14
SPAG7 (UniProt O75391)	0.966 ± 0.021
UniProt O60869 and related entries	1 ± 0.028
AHSA1 (UniProt O95433)	0.978 ± 0.036
TRMU (UniProt O75648)	0.995 ± 0.041
UniProt O75494 and related entries	1.02 ± 0.038
UniProt O95167 and related entries	1.01 ± 0.029

Target	NP40-soluble protein abundance
UniProt O60861 and related entries	1.02 ± 0.039
UniProt O75396	0.984 ± 0.017
RAD21 (UniProt O60216)	0.9789 ± 0.0037
UGDH (UniProt O60701)	0.991 ± 0.062
UniProt O75381 and related entries	1.04 ± 0.064
UniProt O75312	0.973 ± 0.035
UniProt O75182 and related entries	0.986 ± 0.029
SMC2 (UniProt O95347)	0.995 ± 0.027
UniProt O60333-3|O60333 and related entries	0.9765 ± 0.0086
PSMG1 (UniProt O95456)	1.02 ± 0.028
DKC1 (UniProt O60832)	1.03 ± 0.014
UniProt O95684-2	1.02 ± 0.031
PDCD6 (UniProt O75340)	1.04 ± 0.056
TAF5L (UniProt O75529)	1.002 ± 0.01
MCM3AP (UniProt O60318)	1.01 ± 0.023
VPS4B (UniProt O75351)	1.03 ± 0.043
SH3BGRL (UniProt O75368)	0.994 ± 0.04
NPM3 (UniProt O75607)	0.991 ± 0.041
LETM1 (UniProt O95202)	0.991 ± 0.043
